These are yes or no findings as the source states them, for the method shown. In cells and extracts the contact can be indirect. Some results given as binding are weak or reduced against the parent protein; the word gives no strength. One block for each substance: values may come before it.
How the values were obtained:
Test in all cases: co-IP
[1] = target: wild-type Claspin-Flag (stably expressed in HCT116 Claspin-myc-AID cells) (human) (UniProt Q9HAW4)
[2] = target: Flag-tagged ST/A Claspin C-terminal polypeptide (aa897-1339) (human) (UniProt Q9HAW4)
[3] = target: Flag-tagged wild-type Claspin C-terminal polypeptide (aa897-1339) (human) (UniProt Q9HAW4)
[4] = target: ST/A mutant Claspin, Flag-tagged, overexpressed in 293T cells (human) (UniProt Q9HAW4)

Sequences of proteins named here, by UniProt entry; tags and fusion partners are left off. A change or cut given only in a name is not applied to a line headed by its entry. A line that says so, or that is headed by a name, gives the form on record, which may keep a tag or linker. Residues count along the entry.
UniProt Q9HAW4: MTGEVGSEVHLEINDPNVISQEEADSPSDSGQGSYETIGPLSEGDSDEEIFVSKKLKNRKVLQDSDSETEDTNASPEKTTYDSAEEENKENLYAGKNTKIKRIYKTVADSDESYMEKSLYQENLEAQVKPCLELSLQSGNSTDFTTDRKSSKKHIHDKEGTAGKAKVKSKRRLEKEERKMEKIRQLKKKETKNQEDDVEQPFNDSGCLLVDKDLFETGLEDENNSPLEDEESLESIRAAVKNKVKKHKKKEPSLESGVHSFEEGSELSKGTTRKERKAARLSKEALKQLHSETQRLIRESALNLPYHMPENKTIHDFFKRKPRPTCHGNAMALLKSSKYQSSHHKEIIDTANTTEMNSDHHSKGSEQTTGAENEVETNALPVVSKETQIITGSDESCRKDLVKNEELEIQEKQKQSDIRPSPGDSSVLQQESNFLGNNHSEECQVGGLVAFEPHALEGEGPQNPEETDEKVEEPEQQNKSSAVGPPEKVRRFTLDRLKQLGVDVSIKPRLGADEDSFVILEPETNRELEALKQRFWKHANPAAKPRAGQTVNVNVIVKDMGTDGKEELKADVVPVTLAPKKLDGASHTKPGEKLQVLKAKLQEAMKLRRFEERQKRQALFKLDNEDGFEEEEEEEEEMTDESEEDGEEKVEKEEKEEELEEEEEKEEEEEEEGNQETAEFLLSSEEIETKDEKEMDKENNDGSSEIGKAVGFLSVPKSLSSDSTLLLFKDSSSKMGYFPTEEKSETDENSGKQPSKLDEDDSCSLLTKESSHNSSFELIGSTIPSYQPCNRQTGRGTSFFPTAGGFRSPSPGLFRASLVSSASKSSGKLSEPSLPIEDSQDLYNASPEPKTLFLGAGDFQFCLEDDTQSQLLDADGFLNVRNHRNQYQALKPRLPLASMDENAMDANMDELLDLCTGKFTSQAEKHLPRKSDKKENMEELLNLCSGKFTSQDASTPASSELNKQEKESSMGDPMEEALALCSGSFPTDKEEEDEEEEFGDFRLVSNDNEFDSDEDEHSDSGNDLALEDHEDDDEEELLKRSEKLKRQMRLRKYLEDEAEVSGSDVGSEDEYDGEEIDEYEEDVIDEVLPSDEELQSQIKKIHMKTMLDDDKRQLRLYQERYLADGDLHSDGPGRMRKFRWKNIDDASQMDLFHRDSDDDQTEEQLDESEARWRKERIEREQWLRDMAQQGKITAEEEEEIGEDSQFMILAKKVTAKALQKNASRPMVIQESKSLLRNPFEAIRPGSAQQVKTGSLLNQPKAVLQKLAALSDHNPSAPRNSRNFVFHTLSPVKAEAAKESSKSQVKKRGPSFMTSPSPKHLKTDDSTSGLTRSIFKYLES
Flag-tagged wild-type Claspin C-terminal polypeptide (aa897-1339): residues 897-1339 of Q9HAW4
Flag-tagged ST/A Claspin C-terminal polypeptide (aa897-1339) (Q9HAW4, form named): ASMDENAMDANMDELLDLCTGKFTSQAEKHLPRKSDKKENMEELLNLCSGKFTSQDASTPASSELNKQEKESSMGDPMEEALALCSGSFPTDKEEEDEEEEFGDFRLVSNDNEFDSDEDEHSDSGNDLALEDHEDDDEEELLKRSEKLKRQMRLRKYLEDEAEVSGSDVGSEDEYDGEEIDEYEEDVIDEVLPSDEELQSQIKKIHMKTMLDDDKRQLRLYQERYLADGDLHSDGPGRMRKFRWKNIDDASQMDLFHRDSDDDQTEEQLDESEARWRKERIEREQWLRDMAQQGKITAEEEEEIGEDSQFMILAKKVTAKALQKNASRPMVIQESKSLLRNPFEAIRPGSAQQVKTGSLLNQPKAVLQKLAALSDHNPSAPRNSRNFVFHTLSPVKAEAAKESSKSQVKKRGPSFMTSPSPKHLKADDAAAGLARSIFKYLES
ST/A mutant Claspin, Flag-tagged, overexpressed in 293T cells (Q9HAW4, form named): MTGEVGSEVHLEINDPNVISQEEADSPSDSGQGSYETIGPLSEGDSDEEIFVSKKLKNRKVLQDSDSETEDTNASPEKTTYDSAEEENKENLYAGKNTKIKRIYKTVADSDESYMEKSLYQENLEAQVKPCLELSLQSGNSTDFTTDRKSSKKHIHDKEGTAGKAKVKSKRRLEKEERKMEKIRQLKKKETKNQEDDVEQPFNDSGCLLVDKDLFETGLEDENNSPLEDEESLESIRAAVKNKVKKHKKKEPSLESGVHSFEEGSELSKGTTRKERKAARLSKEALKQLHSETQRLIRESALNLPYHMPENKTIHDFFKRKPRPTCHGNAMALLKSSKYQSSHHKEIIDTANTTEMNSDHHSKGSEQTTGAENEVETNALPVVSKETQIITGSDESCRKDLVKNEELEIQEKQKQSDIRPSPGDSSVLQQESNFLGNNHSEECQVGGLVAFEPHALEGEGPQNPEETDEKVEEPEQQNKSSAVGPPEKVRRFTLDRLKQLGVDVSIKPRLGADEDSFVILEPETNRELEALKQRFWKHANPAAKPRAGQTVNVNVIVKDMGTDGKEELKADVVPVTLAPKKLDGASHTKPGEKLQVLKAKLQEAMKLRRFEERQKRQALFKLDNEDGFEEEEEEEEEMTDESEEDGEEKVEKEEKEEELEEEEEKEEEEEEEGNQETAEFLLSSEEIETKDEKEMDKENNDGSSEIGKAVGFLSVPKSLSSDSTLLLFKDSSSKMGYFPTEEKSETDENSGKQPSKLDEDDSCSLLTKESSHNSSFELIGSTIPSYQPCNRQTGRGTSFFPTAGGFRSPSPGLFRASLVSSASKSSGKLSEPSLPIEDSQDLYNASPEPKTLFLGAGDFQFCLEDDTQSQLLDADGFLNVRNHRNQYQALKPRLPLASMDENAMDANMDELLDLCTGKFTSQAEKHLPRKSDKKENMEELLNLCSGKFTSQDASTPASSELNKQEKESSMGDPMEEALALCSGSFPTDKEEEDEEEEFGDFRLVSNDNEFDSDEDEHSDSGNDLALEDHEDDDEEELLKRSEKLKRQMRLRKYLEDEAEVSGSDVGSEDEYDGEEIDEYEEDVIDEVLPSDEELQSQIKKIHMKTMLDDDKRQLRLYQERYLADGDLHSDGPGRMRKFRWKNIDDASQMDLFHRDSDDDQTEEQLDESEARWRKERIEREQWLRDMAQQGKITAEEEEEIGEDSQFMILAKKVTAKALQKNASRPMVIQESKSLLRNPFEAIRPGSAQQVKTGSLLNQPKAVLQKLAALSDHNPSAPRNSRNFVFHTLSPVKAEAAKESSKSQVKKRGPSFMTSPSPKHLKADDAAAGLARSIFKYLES
UniProt O00311: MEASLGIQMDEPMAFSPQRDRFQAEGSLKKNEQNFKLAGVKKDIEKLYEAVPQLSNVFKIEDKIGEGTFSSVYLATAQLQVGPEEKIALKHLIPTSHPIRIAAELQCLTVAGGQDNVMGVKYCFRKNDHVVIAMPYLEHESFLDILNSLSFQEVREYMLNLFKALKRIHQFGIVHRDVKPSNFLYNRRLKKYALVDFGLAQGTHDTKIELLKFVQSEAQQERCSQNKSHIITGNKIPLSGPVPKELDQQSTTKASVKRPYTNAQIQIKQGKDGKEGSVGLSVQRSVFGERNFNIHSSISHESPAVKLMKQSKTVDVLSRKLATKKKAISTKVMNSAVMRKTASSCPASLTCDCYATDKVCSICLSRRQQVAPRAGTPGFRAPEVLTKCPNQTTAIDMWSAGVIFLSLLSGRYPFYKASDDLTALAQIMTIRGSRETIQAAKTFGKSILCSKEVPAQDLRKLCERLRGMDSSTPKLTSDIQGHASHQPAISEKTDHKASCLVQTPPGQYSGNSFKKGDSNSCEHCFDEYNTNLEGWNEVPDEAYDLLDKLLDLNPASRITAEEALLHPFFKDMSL
UniProt Q13535: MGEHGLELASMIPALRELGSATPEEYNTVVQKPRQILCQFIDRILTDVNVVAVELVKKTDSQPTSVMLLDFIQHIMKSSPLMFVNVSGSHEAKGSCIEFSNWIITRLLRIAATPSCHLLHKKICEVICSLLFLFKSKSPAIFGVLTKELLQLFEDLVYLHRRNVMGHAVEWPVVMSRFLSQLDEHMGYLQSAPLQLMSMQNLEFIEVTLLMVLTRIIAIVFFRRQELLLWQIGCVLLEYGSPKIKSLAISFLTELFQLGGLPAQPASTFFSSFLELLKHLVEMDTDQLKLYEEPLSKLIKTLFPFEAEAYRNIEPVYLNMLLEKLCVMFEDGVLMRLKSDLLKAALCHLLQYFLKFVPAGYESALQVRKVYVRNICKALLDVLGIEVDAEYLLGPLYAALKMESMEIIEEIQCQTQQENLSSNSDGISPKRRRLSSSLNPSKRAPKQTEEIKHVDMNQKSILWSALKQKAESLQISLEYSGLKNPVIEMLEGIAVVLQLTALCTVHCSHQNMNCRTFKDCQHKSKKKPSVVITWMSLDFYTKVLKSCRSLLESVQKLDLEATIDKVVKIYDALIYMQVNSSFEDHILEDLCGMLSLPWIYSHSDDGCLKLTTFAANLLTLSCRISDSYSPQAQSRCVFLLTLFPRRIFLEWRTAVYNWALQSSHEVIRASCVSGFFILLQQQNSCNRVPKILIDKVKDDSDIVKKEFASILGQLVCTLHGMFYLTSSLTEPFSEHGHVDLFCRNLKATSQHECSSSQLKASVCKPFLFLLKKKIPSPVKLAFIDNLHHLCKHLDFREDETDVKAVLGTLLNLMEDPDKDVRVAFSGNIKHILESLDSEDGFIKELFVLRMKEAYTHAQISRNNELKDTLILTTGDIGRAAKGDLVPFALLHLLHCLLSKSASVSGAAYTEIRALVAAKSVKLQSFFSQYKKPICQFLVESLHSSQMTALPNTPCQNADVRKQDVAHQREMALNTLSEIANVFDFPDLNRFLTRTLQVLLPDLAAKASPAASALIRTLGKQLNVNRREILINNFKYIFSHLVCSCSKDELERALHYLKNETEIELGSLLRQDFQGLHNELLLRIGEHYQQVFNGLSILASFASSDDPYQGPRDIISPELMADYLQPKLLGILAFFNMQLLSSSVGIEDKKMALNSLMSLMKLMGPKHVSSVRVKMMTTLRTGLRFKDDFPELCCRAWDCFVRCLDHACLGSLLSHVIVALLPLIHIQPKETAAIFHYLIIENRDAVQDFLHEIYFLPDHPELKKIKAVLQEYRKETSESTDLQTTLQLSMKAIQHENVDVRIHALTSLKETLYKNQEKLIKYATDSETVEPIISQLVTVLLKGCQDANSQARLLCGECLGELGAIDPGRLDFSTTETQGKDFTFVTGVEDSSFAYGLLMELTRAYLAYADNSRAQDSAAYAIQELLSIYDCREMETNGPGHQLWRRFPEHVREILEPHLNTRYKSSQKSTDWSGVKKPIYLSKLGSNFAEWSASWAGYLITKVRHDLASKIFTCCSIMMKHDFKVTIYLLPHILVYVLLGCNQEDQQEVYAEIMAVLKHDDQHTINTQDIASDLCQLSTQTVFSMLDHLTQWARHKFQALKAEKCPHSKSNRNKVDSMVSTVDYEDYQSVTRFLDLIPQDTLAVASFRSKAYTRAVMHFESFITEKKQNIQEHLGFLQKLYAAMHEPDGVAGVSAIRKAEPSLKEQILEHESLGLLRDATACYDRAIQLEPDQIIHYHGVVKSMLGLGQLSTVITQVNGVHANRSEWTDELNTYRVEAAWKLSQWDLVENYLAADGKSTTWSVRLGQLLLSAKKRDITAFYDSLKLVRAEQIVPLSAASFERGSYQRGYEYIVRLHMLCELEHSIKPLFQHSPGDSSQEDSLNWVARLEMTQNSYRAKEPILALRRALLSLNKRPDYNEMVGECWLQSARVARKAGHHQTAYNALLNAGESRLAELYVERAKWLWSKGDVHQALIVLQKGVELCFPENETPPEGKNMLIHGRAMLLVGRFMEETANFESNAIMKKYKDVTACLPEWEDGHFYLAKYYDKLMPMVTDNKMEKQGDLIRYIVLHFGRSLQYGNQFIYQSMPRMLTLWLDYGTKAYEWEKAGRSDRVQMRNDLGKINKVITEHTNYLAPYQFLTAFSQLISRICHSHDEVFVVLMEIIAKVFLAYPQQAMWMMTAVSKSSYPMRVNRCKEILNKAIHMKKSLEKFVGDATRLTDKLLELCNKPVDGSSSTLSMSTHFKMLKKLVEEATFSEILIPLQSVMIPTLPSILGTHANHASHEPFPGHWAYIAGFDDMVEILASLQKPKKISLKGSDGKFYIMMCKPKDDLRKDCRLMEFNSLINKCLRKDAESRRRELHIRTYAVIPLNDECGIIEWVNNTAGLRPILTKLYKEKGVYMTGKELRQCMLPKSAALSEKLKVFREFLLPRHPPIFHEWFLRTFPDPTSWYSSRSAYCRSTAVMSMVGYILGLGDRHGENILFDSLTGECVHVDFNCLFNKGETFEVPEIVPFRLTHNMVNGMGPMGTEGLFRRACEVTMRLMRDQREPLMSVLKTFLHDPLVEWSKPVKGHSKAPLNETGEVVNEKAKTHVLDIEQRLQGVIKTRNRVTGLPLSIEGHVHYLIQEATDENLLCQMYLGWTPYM

binding [1]: binds
Substance: Cdc7 (in HCT116 Claspin-myc-AID cells) (from UniProt O00311 1-574) (enzyme)

binding [2]: binds | binding [3]: binds
Substance: Cdc7 (in 293T cells) (from UniProt O00311 1-574) (enzyme)

binding [4]: binds
Substance: ATR (Ataxia Telangiectasia and Rad3-related) (from UniProt Q13535 1-2644) (enzyme)

From publication doi:10.1101/2025.08.21.670878
